Data taken from article PMC5226922.
No constants are given. Whether binding was seen depends on the method and setting. In cells and extracts the contact can be indirect. Some entries that bind do so weakly or less than the wild type. Where a sequence is shown, tags or fusion partners need not be part of it. One block for each binder: values may come before it.

Key:
Bub1-GFP (fission yeast) [1] = target: T1, Bub1-GFP (fission yeast) (UniProt O94751); assay: co-IP; Bub1-GFP immunoprecipitated from fission yeast cells arrested by co-expression of TetR-Spc7-9TE and TetR-Mph1ΔN (16 hr), cross-linked with DSP before harvesting; with and without the tetO array; also in bub3Δ cells harvested after 12 hr of induction (higher levels of the complex); immunoblots with anti-Bub1 and anti-Mad1
T1 sequence: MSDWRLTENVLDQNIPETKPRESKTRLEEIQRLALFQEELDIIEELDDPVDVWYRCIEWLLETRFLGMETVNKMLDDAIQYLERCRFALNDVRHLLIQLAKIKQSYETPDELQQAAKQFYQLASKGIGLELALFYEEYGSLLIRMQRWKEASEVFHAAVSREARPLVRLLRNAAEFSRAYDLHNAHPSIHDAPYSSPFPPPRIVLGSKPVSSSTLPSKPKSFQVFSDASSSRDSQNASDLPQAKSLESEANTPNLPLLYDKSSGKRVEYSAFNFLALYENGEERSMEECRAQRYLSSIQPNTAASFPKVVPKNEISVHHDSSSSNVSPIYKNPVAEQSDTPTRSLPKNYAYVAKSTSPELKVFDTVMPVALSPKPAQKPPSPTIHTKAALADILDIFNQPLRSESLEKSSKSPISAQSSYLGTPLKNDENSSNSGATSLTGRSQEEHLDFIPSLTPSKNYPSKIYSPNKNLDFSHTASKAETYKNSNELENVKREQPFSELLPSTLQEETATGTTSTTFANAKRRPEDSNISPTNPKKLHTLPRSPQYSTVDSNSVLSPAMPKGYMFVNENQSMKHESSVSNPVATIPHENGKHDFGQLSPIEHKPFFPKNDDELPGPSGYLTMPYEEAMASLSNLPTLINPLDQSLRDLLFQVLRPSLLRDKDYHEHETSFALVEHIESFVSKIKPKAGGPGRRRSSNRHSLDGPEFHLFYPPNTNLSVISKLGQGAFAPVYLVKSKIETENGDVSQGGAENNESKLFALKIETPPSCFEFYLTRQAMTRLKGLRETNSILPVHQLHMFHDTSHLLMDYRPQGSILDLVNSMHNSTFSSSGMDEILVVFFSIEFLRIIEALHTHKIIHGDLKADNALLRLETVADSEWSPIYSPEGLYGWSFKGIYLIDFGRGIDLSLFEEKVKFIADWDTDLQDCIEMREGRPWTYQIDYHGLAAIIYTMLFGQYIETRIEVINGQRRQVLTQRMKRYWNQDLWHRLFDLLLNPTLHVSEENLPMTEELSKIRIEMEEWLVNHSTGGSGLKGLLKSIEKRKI

Alp4 (fission yeast) = target: T2, Alp4 (fission yeast) (UniProt Q9Y705); assay: co-IP; synthetically arrested fission yeast cells with Mad2-GFP (Figure S3A)
T2 sequence: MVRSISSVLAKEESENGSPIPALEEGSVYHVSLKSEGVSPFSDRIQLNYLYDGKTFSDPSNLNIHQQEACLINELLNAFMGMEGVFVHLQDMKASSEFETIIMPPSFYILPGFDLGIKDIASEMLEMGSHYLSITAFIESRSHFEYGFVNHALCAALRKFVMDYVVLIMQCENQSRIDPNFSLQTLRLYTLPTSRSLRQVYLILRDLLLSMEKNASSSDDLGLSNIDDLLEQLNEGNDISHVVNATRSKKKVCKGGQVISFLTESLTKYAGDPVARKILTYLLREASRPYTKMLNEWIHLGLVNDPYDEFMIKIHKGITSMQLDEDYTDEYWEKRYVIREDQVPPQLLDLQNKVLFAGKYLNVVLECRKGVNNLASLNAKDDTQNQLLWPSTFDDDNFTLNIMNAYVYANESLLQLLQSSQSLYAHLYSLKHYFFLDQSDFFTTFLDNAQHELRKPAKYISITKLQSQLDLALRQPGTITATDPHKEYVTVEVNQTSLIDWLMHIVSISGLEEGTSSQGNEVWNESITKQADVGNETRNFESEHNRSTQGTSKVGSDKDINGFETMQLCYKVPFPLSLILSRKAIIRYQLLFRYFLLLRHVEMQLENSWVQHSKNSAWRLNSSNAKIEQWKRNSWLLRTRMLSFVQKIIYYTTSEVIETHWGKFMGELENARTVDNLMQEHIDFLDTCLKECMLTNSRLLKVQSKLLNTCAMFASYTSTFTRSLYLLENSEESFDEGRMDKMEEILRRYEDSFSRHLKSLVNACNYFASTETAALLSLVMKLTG

Bub1-GFP (fission yeast) [2] = target: T1, Bub1-GFP (fission yeast); assay: co-IP; cells with the TetR-Spc7-wt platform; data not shown
Bub1-GFP (fission yeast) [3] = target: T1, Bub1-GFP (fission yeast); assay: co-IP; extracts made from nda3 arrested cells after DSP cross-linking; data not shown

- binding (Bub1-GFP (fission yeast) [1]): binds
B1: Mad2 (protein, UniProt O14417 1-203)
chain: MSSVPIRTNFSLKGSSKLVSEFFEYAVNSILFQRGIYPAEDFKVVRKYGLNMLVSVDEEVKTYIRKIVSQLHKWMFAKKIQKLILVITSKCSGEDLERWQFNVEMVDTADQFQNIGNKEDELRVQKEIQALIRQITATVTFLPQLEEQCTFNVLVYADKDSEVPTDWVDSDPRILRDAEQVQLRSFSTSMHKIDCQVAYRVNP

- binding (Alp4 (fission yeast)): binds
B2: Mad2-GFP (protein, UniProt O14417 1-203)
chain: B1 chain

- binding (Bub1-GFP (fission yeast) [2]): binds
- binding (Bub1-GFP (fission yeast) [3]): binds
- binding (Bub1-GFP (fission yeast) [1]): binds
B3: Mad1 (protein, UniProt P87169 1-676)
chain: MADSPRDPFQSRSQLPRFLATSVKKPNLKKPSVNSANETKNPKLASLEFQLENLKNDLKRKELEFEREQIELQRKLAEEHEQKNSLQLRLTLVEKQLEEQSTSYQKEIEEVRNEKEATQVKIHELLDAKWKEIAELKTQIEKNDQALSEKNHEVMVSNQALQMKDTNLTNLEKLFADSREQLETKCKELAAAEQQLQELSVHNQQLEESIKQVSSSIELEKINAEQRLQISELEKLKAAQEERIEKLSSNNRNVEILKEEKNDLESKLYRFEEYRDKVATLELENEKIQTELNSWKSLITNELPTPEAVSNKLVFLQNTNANLGERVSSLESQLSNKPANQPLGANEKDAAHITELETKLKELHEQNRRLQRQKSLATQEIDLLRENLKSYDDEEAILSEKNTDMKKLERIEGLVKLVDEYKLKLESMPVSLDVDETSDEVSLQKRRRKNEHKDAGYVTELYRKNQHLLFQVKEKTNIEAFLREQIITLESSIATLRQELAQVTEINSCRVLQHRSNPTLKYERIKAAQLEMLNAENSALKALLEDKKVDCLPIQSFKIAERKALDLKKEVAEREKRIQRLKEIFSVKSLEFREAVFSLFGYKLDFMPNGSVRVTSTYSREDNTAFIFDGESSTMKLVGNPSGPEFERLIRFWCDERKTIPGMLAALTLELLDKND
